Measured values reported in paper PMC4196752.
No constants are given. Whether binding was seen depends on the method and setting. In cells and extracts the contact can be indirect. Binding can be weak; no strength is given. Where a sequence is shown, tags or fusion partners need not be part of it.

Protein sequences, listed by entry. Tags and fused reporters are not part of them. Lines headed by an entry give the natural chain unless they say otherwise; changes in a name come on top.
UniProt Q1MTN9: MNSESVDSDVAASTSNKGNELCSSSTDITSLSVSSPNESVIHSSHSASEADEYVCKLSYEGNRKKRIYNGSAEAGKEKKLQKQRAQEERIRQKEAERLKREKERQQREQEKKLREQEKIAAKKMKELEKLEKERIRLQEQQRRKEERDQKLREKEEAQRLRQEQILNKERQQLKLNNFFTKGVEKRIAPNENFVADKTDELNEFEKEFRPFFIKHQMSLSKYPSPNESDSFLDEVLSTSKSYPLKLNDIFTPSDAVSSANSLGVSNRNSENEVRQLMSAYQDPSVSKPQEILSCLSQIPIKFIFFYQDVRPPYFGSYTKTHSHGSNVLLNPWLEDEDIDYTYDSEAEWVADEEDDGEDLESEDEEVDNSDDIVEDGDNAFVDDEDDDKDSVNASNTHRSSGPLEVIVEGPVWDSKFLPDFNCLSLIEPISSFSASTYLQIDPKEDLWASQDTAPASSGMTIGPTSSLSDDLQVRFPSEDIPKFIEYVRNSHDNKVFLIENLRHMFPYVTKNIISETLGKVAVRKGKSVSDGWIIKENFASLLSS

Target: Pcf1PIP^mut-YFP (S. pombe) (UniProt Q1MTN9)
Assay: co-IP; S. pombe extract in EB buffer (50 mM HEPES, 50 mM KOAc pH 7.5, 5 mM EGTA, 1% triton X-100); Pcf1-YFP or Pcf1PIP^mut-YFP precipitated with anti-GFP and Dynabeads protein-G at 4°C; Western blot with anti-GFP, anti-Myc, Rqh1 antibody, anti-PCNA

binding: binds
B1: Pcf2-MYC (protein, UniProt O13985 1-512)
chain: MRAEVLQIRWHYDANDDHTPIYSVDFQKNSLNKFATCGGDSKIRIWQLITSESSTKVEYLSTLSRHTQAVNVVRFNPEGNILATAGDEGTIMLWVPTNTPITTLADDAEELALAKEYWKVKIVCRSMGSEIYDLCWSVDSNFLIAGAMDNSLRLYDAHTGQLLTQKFDHSHYVQGVCWDPLNQYIVSESSDRSICLYEIQEEKKNPKKFQLVLKSRICRIEYNVTKFELISVTKPLNNDESSGISEPIETSNNNESPVSKHEALSSTANIVKDGSLERTEPPNSLNSKISYSLYCNETLVSFFRRPAFSPDGLLLVTPAGRLRPHGQPNFEVPYTAYIYTRGSITKQPVACLNGFKKPVIAVRFSPIHYELNSFSNFSFTSVSFNLPYRMVFAVACQDAVYIYDTQTCKPFYRAVNLHYSNLTDIAWNDDGNVLLMTSIDGFCSVITFEPGELGVKSQHKISLPEKRSASPSSIDDSQDNTAGGPATTTLIPRKVESSKVSKKRIAPTPVYP
